Laboratory results reported in publication PMC7819943, “Rice protein-binding microarrays: a tool to detect cis-acting elements near promoter regions in rice”.
The other results are listed elsewhere or left out.

What follows are sequences tested against T1, OsSMF1 (Oryza sativa, UniProt Q6ZLB0 1-436) (assay: protein-binding microarray (RPBM); PBS, 2% BSA, 51.3 ng/ul salmon testes DNA, 50 uM zinc acetate, 200 nM TF, 25 C, 1 h; high values mean tight binding). Details: protein: recombinant; tags: N-terminal polyhistidine and DsRed monomer fusion (pET32a); chain copies: 2; label: CyDye5-dUTP incorporated in the synthesized complementary strand; 3' TTTTT single-stranded linker to array surface; dsDNA, one strand shown.
T1 sequence: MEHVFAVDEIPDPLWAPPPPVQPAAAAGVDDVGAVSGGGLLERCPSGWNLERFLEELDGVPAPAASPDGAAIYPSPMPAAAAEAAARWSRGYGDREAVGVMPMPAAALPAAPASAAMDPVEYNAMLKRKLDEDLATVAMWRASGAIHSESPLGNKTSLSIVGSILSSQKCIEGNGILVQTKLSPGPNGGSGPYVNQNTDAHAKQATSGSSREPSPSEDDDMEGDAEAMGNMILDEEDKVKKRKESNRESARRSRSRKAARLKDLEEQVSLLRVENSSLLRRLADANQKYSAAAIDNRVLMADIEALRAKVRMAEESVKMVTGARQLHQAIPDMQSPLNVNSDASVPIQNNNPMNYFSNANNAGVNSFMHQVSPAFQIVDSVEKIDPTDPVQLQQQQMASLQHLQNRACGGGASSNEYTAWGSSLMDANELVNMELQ
Outline: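 A custom Agilent array was converted to double-stranded form by primer extension with Cy5-dUTP and blocked with 2% BSA. Protein at 200 nM in PBS with 2% BSA, salmon testes DNA and 50 µM zinc acetate was applied for 1 h at 25 °C, followed by washing. The proteins were polyhistidine–DsRed N-terminal fusions of transcription factors, expressed in E. coli BL21-CodonPlus and Ni–NTA-purified. The binding signal is per-feature fluorescence intensity (arbitrary units) from an Axon 4000B scanner.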
With “GTAACCCGGTGCGCCACCGACCGAGACGACGCACATCTCGCGGAGTCACCTAGTGCAG” the binding signal was 3490 fluorescence intensity (a.u.).
For “TAGCCACACCCACACGCACACCCGATCGATCCTGGCATCCCGGAGTCACCTAGTGCAG”, the binding signal was 3400 fluorescence intensity (a.u.).
For “CAATTGAAATGAATTATTGTCGTCCCTAGTTAATTACTAGCGGAGTCACCTAGTGCAG”, the binding signal was 3280 fluorescence intensity (a.u.).
“TAATCTCCGACCTGGTCTCTAGTGATGTGTGTGCTTGTGTCGGAGTCACCTAGTGCAG” was tested, and the binding signal was 4340 fluorescence intensity (a.u.).
In the case of “TCGAGGATATAGGGTCACTCATGTTGAGTATTATGTGTTTCGGAGTCACCTAGTGCAG”, the binding signal is reported as 3800 fluorescence intensity (a.u.).
For “TTGTTGGCTGAAGTTCAGTGACTAATGATGGAATTCGTTGCGGAGTCACCTAGTGCAG”, the binding signal was 4500 fluorescence intensity (a.u.).
“TGTAAACCATAAAACTTCAGTTACATCATTTTGCCTACTACGGAGTCACCTAGTGCAG” was tested, and the binding signal was 3150 fluorescence intensity (a.u.).
For “CCCACCGTCCCCGCGCGCCACGTCAGATCACCGCGGAGGTCGGAGTCACCTAGTGCAG”, the binding signal was 19100 fluorescence intensity (a.u.).
In the case of “CTTCGTGACTCATCCAGCGCCTCCCCTGTGCCGCACCGGCCGGAGTCACCTAGTGCAG”, the binding signal is reported as 10600 fluorescence intensity (a.u.).
For “ATCAAGGGTTGCTGCGTCGGTCCGAAGAAGAGAGTCGTCACGGAGTCACCTAGTGCAG”, the binding signal was 3230 fluorescence intensity (a.u.).
For “ATCATCTCCGCTCCCACCCAAGATCCTCTGACGTCTGGGTCGGAGTCACCTAGTGCAG”, the binding signal was 3240 fluorescence intensity (a.u.).
In the case of “CTATCCGTCCAAATTAGGCTATCTCTAAAGATTAACTAACCGGAGTCACCTAGTGCAG”, the binding signal is reported as 41000 fluorescence intensity (a.u.).
In the case of “GGGCTCCCAAACCGGGTCCCTGTCGGGCTCGCTCCGAACCCGGAGTCACCTAGTGCAG”, the binding signal is reported as 3170 fluorescence intensity (a.u.).
For “TTTTAGTACAGGTCATACCTAAATCGTTACAAATTCAGCACGGAGTCACCTAGTGCAG”, the binding signal was 4700 fluorescence intensity (a.u.).
In the case of “AGAGGAGGGATGAGTTGGACTGACATGTGGTGCTCAGGTGCGGAGTCACCTAGTGCAG”, the binding signal is reported as 3980 fluorescence intensity (a.u.).
For “ATGTTACAACTGGACTTCATTCTCCAGTAAAATCGTATGTCGGAGTCACCTAGTGCAG”, the binding signal was 19600 fluorescence intensity (a.u.).
With “TCCGCGCGGGCCCACTGTCCAGTGACACAGTGAACACAATCGGAGTCACCTAGTGCAG” the binding signal was 3620 fluorescence intensity (a.u.).
In the case of “AAATGAATACAGTCTATACGTGTACTCCCTCCGTTCCATACGGAGTCACCTAGTGCAG”, the binding signal is reported as 5240 fluorescence intensity (a.u.).
“CTACTAGCAGCCTACCAGCATAACTAGTGGAGCAGTAGACCGGAGTCACCTAGTGCAG” was tested, and the binding signal was 5620 fluorescence intensity (a.u.).
“TTCTTTGTTGTTGCTGACTAGTTGCATACGTGGGCAATGACGGAGTCACCTAGTGCAG” was tested, and the binding signal was 17200 fluorescence intensity (a.u.).
In the case of “ACCTAGAAACTAAGGCTGTGTTTAGTTCAGCGTAAAGTTTCGGAGTCACCTAGTGCAG”, the binding signal is reported as 3570 fluorescence intensity (a.u.).
For “GTCTCCGATGCCCCGATGCCGCCGCGTCGCTGGCCTGATTCGGAGTCACCTAGTGCAG”, the binding signal was 3390 fluorescence intensity (a.u.).
In the case of “AGTTTCCGAGAGCGAGCGAGAGAGAGAGAGAGAGAGAGAGCGGAGTCACCTAGTGCAG”, the binding signal is reported as 3220 fluorescence intensity (a.u.).
For “CATCGTGCTCTTCTCATTGCCTCTGCTTCTCGTGTTCTTGCGGAGTCACCTAGTGCAG”, the binding signal was 3420 fluorescence intensity (a.u.).
In the case of “GGAAGCGGTTGATTGAATGAGGGATGGCGTGGATGAAAGCCGGAGTCACCTAGTGCAG”, the binding signal is reported as 4540 fluorescence intensity (a.u.).
For “CCGCTCTCCTACTGCTCGGCCAACCAGTCATGCACACATACGGAGTCACCTAGTGCAG”, the binding signal was 3500 fluorescence intensity (a.u.).
For “TTTTATACTACTACCAGCTGATGATGATTCAGCAGCTCACCGGAGTCACCTAGTGCAG”, the binding signal was 6140 fluorescence intensity (a.u.).
In the case of “TCCCATGGCTCGCGTTCGGCCACGTGCTCCCTTACCTAGACGGAGTCACCTAGTGCAG”, the binding signal is reported as 3870 fluorescence intensity (a.u.).
In the case of “CTCCATATGCTATGACATGGATTAATTAATGGTTCGTGCGCGGAGTCACCTAGTGCAG”, the binding signal is reported as 5450 fluorescence intensity (a.u.).
With “GATGTGCTCCACCACCGGTGAGGTCACGGCCGCCGCCTCCCGGAGTCACCTAGTGCAG” the binding signal was 3640 fluorescence intensity (a.u.).
“CAAATGGTACAATTCAATTTATGTTGTTAGGCTTTACGTGCGGAGTCACCTAGTGCAG” was tested, and the binding signal was 3690 fluorescence intensity (a.u.).
For “CGACGGGGCCATGTGGTTTGGTTTTGTTTAGCATCCCGTCCGGAGTCACCTAGTGCAG”, the binding signal was 3270 fluorescence intensity (a.u.).
With “AGAGGCATGGGAGTCATGTTCAGGGTGATGGGAGATGGAGCGGAGTCACCTAGTGCAG” the binding signal was 3260 fluorescence intensity (a.u.).
With “AGCAATGTCTGTCCCATTCCATCAAGTCACCAGCTACATGCGGAGTCACCTAGTGCAG” the binding signal was 3470 fluorescence intensity (a.u.).
“TCTAAGTCTAGTGGTTTGGTTTCTTCCACGACTTCTTTGGCGGAGTCACCTAGTGCAG” was tested, and the binding signal was 3940 fluorescence intensity (a.u.).
In the case of “AGGGATTATGTGTGTGTAAGATATTTGTGACTAGTTTATTCGGAGTCACCTAGTGCAG”, the binding signal is reported as 3630 fluorescence intensity (a.u.).
For “GAGATGAATCTCAGCCGCGTCATCCACCTCATTGCTCTTACGGAGTCACCTAGTGCAG”, the binding signal was 9370 fluorescence intensity (a.u.).
For “GTCCCACGCTCTCTCGCTCGCTCGCTGACGTGCGGGACCCCGGAGTCACCTAGTGCAG”, the binding signal was 7440 fluorescence intensity (a.u.).
In the case of “TTTCGACGATCCAAACGTCATCGCTACATCGTCTGAAACCCGGAGTCACCTAGTGCAG”, the binding signal is reported as 4340 fluorescence intensity (a.u.).
With “CCACGCCGCCGCCGCCGCCGCCGTCTCGTCAGCAAGCGCTCGGAGTCACCTAGTGCAG” the binding signal was 5000 fluorescence intensity (a.u.).
For “CCCGTCGATGACAGGGTATTCCAGGAGCTCCAAGCATGAACGGAGTCACCTAGTGCAG”, the binding signal was 29400 fluorescence intensity (a.u.).
In the case of “TACCTGCCATGGTGAAAGATTTGTTGACTCAGTTTGATAGCGGAGTCACCTAGTGCAG”, the binding signal is reported as 3330 fluorescence intensity (a.u.).
With “GTACATATAGCTACCCGAACCACCGCCGCCGCCGCCGCCACGGAGTCACCTAGTGCAG” the binding signal was 3460 fluorescence intensity (a.u.).
In the case of “AGAGACTGATTGATTGGTGGAGAAGCTGTGAGGTGGGGTTCGGAGTCACCTAGTGCAG”, the binding signal is reported as 4770 fluorescence intensity (a.u.).
“GGCGGCGGCGGCGGCGGAGGAGGCGGCGGGTCTAGGGTTGCGGAGTCACCTAGTGCAG” was tested, and the binding signal was 3680 fluorescence intensity (a.u.).
In the case of “AGCAGTCCGTACAGCCCCGACACAGATGCATGACGCGTGGCGGAGTCACCTAGTGCAG”, the binding signal is reported as 7720 fluorescence intensity (a.u.).
For “CCCCAAACCCTAAATATTTCTCCACGGCGGCAGGCATACACGGAGTCACCTAGTGCAG”, the binding signal was 3510 fluorescence intensity (a.u.).
In the case of “GCCGATAGAGCAAATGATGAACCCTGTCTTCTCTTGATCTCGGAGTCACCTAGTGCAG”, the binding signal is reported as 3200 fluorescence intensity (a.u.).
With “CATCGGCTCAAAGATAAATAATACATCATCGGCGACTGGCCGGAGTCACCTAGTGCAG” the binding signal was 3290 fluorescence intensity (a.u.).
With “TGCAAAGTTGCAAGCTCGCAAACTGCTAATTACGCTATTTCGGAGTCACCTAGTGCAG” the binding signal was 3270 fluorescence intensity (a.u.).
With “TTAGCTAGACTACAGCTCTAGTAGAGCTGTAGAGGTAGAGCGGAGTCACCTAGTGCAG” the binding signal was 44000 fluorescence intensity (a.u.).
In the case of “TTCATGACTTGACGTCACCAGCTTTCCTTACCCCGTAAGCCGGAGTCACCTAGTGCAG”, the binding signal is reported as 20100 fluorescence intensity (a.u.).
For “GCTGCATCTACCCTCTAATCTTGTGAAGAATAGTCTGCATCGGAGTCACCTAGTGCAG”, the binding signal was 27000 fluorescence intensity (a.u.).
For “TCCTATCCTATGCATGAAATGAGTCAGAGGCTCACAATAGCGGAGTCACCTAGTGCAG”, the binding signal was 5160 fluorescence intensity (a.u.).
